# Reference: the supplement of paper PMC8728848
# The other results are listed elsewhere or left out.
# B1: Protein L(A-C2) (Finegoldia magna), Q51912 (protein)
# chain: ADEPIDLEKLEEKRDKENVGNLPKFDNEVKDGSENPMAKYPDFDDEASTRFETENNEFEEKKVVSDNFFDQSEHPFVENKEETPETPETDSEEEVTIKANLIFANGSTQTAEFKGTFEKATSEAYAYADTLKKDNGEYTVDVADKGYTLNIKFAGKEKTPEEPKEEVTIKANLIYADGKTQTAEFKGTFEEATAEAYRYADALKKDNGEYTVDVADKGYTLNIKFAGKEKTPEEPKEEVTIKANLIYADGKTQTAEFKGTFEEATAEAYRYADLLAKENGKYTVDVADKGYTLNIKFAGKEKTPEEPKEEVTIKANLIYADGKTQTAEFKGTFAEATAEAYRYADLLAKENGKYTADLEDGGYTINIRFAGKKVDEKPEEKEQVTIKENIYFEDGTVQTATFKGTFAEATAEAYRYADLLSKEHGKYTADLEDGGYTINIRFAGKEEPEETPEKPEVQDGYASYEEAEAAAKEALKNDDVNKSYTIRQGADGRYYYVLSPVEAEEEKPEAQNGYATYEEAEAAAKKALENDPINKSYSIRQGADGRYYYVLSPVEAE
# Tests used:
# Test in all cases: glycan array binding signal (z-score within array); higher = stronger binding
# Conditions in all cases: glycan notation: IUPAC condensed, linker removed
# Gal3S(b1-4)Glc = molecular target: Gal3S(b1-4)Glc
# Outline: (§1)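 Glycan array data came from 3228 arrays in the Consortium for Functional Glycomics database, and only arrays with an available protein sequence were kept. Glycan names were put into IUPAC-condensed notation, and columns mapping to the same glycan were averaged. The binding signal is a within-array Z-score, averaged across arrays of one protein sequence run at different concentrations or buffers and across linkers. A negative Z-score can be read as non-binding.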
# Gal3S(b1-4)Glc6S = molecular target: Gal3S(b1-4)Glc6S
# Outline: as §1
# Gal3S(b1-4)GlcNAc = molecular target: Gal3S(b1-4)GlcNAc
# Outline: as §1
# [1] = molecular target: Gal3S(b1-4)[Fuc(a1-3)]Glc6S
# Outline: as §1
# [2] = molecular target: Gal3S(b1-4)[Fuc(a1-3)]GlcNAc
# Outline: as §1
# [3] = molecular target: Gal3S(b1-4)[Fuc(a1-3)]GlcNAc6S
# Outline: as §1
# Gal3S4S(b1-4)GlcNAc = molecular target: Gal3S4S(b1-4)GlcNAc
# Outline: as §1
# Gal3S6S(b1-4)GlcNAc = molecular target: Gal3S6S(b1-4)GlcNAc
# Outline: as §1
# Gal3S6S(b1-4)GlcNAc6S = molecular target: Gal3S6S(b1-4)GlcNAc6S
# Outline: as §1
# Gal4S(b1-4)GlcNAc = molecular target: Gal4S(b1-4)GlcNAc
# Outline: as §1
# Gal4S6S(b1-4)GlcNAc = molecular target: Gal4S6S(b1-4)GlcNAc
# Outline: as §1
# Gal6P(b1-4)GlcNAc = molecular target: Gal6P(b1-4)GlcNAc
# Outline: as §1
# Gal6S(b1-3)GlcNAc = molecular target: Gal6S(b1-3)GlcNAc
# Outline: as §1
# Gal6S(b1-3)GlcNAc6S = molecular target: Gal6S(b1-3)GlcNAc6S
# Outline: as §1
# Gal6S(b1-4)Glc = molecular target: Gal6S(b1-4)Glc
# Outline: as §1
# Gal6S(b1-4)Glc6S = molecular target: Gal6S(b1-4)Glc6S
# Outline: as §1
# Gal6S(b1-4)GlcNAc = molecular target: Gal6S(b1-4)GlcNAc
# Outline: as §1
# Gal6S(b1-4)GlcNAc6S = molecular target: Gal6S(b1-4)GlcNAc6S
# Outline: as §1
# GalNAc(a1-3)Gal = molecular target: GalNAc(a1-3)Gal
# Outline: as §1
# GalNAc(a1-3)GalNAc = molecular target: GalNAc(a1-3)GalNAc
# Outline: as §1
# [4] = molecular target: GalNAc(a1-3)GalNAc(a1-3)Gal(a1-4)Gal(b1-4)GlcNAc
# Outline: as §1
# [5] = molecular target: GalNAc(a1-3)GalNAc(b1-3)Gal(a1-4)Gal(b1-4)Glc
# Outline: as §1
# GalNAc(b1-3)Gal = molecular target: GalNAc(b1-3)Gal
# Outline: as §1
# [6] = molecular target: GalNAc(b1-3)Gal(a1-4)Gal(b1-4)GlcNAc
# Outline: as §1
# [7] = molecular target: GalNAc(b1-3)Gal(a1-4)Gal(b1-4)GlcNAc(b1-3)Gal(b1-4)Glc
# Outline: as §1
# [8] = molecular target: GalNAc(b1-3)Gal(a1-6)Gal(b1-4)Glc
# Outline: as §1
# GalNAc(b1-3)GalNAc = molecular target: GalNAc(b1-3)GalNAc
# Outline: as §1
# GalNAc(b1-3)GlcNAc = molecular target: GalNAc(b1-3)GlcNAc
# Outline: as §1
# GalNAc(b1-4)Gal(b1-4)Glc = molecular target: GalNAc(b1-4)Gal(b1-4)Glc
# Outline: as §1
# GalNAc(b1-4)GlcNAc = molecular target: GalNAc(b1-4)GlcNAc
# Outline: as §1
binder,measurement,setting,value
B1,glycan array binding signal (z-score),Gal3S(b1-4)Glc,-0.458
same,glycan array binding signal (z-score),Gal3S(b1-4)Glc6S,0.567
same,glycan array binding signal (z-score),Gal3S(b1-4)GlcNAc,-0.821
same,glycan array binding signal (z-score),[1],1.96
same,glycan array binding signal (z-score),[2],0.054
same,glycan array binding signal (z-score),[3],-0.503
same,glycan array binding signal (z-score),Gal3S4S(b1-4)GlcNAc,-0.721
same,glycan array binding signal (z-score),Gal3S6S(b1-4)GlcNAc,-0.128
same,glycan array binding signal (z-score),Gal3S6S(b1-4)GlcNAc6S,-0.311
same,glycan array binding signal (z-score),Gal4S(b1-4)GlcNAc,-0.492
same,glycan array binding signal (z-score),Gal4S6S(b1-4)GlcNAc,-0.203
same,glycan array binding signal (z-score),Gal6P(b1-4)GlcNAc,-0.824
same,glycan array binding signal (z-score),Gal6S(b1-3)GlcNAc,-1.06
same,glycan array binding signal (z-score),Gal6S(b1-3)GlcNAc6S,-0.561
same,glycan array binding signal (z-score),Gal6S(b1-4)Glc,-0.354
same,glycan array binding signal (z-score),Gal6S(b1-4)Glc6S,1.75
same,glycan array binding signal (z-score),Gal6S(b1-4)GlcNAc,-0.893
same,glycan array binding signal (z-score),Gal6S(b1-4)GlcNAc6S,-0.607
same,glycan array binding signal (z-score),GalNAc(a1-3)Gal,-0.664
same,glycan array binding signal (z-score),GalNAc(a1-3)GalNAc,-0.445
same,glycan array binding signal (z-score),[4],-1.15
same,glycan array binding signal (z-score),[5],0.108
same,glycan array binding signal (z-score),GalNAc(b1-3)Gal,-0.354
same,glycan array binding signal (z-score),[6],-0.837
same,glycan array binding signal (z-score),[7],0.127
same,glycan array binding signal (z-score),[8],-0.834
same,glycan array binding signal (z-score),GalNAc(b1-3)GalNAc,-0.192
same,glycan array binding signal (z-score),GalNAc(b1-3)GlcNAc,-0.41
same,glycan array binding signal (z-score),GalNAc(b1-4)Gal(b1-4)Glc,-0.271
same,glycan array binding signal (z-score),GalNAc(b1-4)GlcNAc,-0.004

# Not a retest: an excerpt of the list.
binder,measurement,setting,value
B1,glycan array binding signal (z-score),Gal6S(b1-3)GlcNAc,-1.06
same,glycan array binding signal (z-score),Gal6S(b1-3)GlcNAc6S,-0.561
